# In the supplement of paper PMC10032668:
# Amino acid sequences for entries named in this document (tags omitted).
# NUTF2, P61970, UniProt P61970, whole entry: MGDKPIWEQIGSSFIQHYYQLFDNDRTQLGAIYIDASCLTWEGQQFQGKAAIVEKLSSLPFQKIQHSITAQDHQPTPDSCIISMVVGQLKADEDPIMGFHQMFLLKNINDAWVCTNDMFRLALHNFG
# NCOR2, Q9Y618, UniProt Q9Y618, whole entry: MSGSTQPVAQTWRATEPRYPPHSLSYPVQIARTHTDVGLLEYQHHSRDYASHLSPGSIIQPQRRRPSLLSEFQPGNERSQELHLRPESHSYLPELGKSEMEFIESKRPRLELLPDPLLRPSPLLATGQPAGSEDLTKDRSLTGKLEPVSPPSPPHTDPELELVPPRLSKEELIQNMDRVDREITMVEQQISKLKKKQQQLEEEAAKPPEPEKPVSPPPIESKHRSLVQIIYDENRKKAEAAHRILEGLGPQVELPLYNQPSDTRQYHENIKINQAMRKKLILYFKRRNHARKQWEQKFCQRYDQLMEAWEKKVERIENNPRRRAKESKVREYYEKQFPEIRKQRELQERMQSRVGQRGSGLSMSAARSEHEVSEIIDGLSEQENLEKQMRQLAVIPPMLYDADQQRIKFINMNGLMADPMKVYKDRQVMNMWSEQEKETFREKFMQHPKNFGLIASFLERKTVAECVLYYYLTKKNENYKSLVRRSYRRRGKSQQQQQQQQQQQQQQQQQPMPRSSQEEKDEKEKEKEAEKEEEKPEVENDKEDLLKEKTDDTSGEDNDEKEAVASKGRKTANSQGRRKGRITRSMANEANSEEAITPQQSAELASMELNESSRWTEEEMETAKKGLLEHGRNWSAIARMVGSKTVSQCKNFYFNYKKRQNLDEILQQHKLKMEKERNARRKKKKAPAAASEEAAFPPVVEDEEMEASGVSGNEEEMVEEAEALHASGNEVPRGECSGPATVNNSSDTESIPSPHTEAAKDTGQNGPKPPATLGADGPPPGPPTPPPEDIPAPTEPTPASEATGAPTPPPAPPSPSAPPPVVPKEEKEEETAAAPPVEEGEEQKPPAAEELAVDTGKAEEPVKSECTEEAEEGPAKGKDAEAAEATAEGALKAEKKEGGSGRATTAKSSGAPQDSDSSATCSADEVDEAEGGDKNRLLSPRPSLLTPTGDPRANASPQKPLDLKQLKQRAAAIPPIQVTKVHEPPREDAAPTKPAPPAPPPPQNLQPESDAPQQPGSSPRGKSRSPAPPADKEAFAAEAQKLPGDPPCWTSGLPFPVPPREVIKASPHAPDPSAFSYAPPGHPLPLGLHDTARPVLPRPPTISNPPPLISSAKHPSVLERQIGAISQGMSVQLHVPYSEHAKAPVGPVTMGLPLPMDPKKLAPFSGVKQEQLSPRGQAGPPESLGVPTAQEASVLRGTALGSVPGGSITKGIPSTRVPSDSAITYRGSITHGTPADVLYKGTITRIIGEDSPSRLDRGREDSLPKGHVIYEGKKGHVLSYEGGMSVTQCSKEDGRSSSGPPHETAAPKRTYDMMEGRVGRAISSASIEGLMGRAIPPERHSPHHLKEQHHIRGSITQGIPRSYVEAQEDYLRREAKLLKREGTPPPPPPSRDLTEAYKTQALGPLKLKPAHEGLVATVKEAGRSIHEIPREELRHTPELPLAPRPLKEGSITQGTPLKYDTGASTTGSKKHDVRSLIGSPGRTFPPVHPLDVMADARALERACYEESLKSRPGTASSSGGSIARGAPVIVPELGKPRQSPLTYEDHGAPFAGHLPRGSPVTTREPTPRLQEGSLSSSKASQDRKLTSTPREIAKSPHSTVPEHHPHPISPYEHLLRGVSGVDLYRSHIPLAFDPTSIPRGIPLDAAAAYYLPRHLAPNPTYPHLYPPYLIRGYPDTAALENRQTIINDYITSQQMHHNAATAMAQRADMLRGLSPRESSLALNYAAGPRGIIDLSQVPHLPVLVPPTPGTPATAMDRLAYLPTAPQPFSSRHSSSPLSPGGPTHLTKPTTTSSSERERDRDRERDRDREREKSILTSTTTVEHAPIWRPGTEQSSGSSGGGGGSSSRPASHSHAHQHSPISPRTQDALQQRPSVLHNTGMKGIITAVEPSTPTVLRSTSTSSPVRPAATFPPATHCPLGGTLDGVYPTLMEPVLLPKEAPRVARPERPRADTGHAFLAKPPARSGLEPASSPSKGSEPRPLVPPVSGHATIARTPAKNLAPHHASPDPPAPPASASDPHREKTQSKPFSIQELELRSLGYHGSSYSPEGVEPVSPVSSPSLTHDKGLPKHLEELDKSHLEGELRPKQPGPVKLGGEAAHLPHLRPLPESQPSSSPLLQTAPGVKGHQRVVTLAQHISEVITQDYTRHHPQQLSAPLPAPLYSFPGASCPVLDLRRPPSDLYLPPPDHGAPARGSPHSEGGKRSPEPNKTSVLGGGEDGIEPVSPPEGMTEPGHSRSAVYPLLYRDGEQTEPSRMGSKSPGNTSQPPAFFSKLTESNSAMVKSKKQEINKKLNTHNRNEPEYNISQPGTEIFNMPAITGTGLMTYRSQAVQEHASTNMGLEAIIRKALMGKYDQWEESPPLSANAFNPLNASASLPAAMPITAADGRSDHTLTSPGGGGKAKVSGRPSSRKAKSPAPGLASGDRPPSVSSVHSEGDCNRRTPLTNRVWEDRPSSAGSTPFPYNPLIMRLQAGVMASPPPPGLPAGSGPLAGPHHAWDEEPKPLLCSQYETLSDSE
# RPS6KA3, P51812, UniProt P51812, whole entry: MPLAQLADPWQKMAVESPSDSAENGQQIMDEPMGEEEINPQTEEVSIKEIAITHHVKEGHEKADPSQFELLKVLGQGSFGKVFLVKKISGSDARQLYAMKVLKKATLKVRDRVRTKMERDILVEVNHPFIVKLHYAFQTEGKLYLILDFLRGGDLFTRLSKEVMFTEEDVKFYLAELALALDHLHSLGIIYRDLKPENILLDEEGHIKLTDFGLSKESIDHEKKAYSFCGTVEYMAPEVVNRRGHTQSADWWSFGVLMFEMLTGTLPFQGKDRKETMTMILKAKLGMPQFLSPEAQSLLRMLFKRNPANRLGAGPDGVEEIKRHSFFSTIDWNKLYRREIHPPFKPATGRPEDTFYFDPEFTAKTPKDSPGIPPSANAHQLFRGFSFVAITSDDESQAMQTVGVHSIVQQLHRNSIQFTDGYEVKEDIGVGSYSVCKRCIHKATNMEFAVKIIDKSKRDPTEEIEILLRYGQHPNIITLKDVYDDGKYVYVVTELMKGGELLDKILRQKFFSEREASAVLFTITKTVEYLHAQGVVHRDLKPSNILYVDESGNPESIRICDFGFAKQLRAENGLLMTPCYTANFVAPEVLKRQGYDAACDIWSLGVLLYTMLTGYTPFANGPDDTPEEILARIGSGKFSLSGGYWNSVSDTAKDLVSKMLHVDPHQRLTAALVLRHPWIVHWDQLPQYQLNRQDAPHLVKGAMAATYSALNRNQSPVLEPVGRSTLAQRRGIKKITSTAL
# NELFE, P18615, UniProt P18615, whole entry: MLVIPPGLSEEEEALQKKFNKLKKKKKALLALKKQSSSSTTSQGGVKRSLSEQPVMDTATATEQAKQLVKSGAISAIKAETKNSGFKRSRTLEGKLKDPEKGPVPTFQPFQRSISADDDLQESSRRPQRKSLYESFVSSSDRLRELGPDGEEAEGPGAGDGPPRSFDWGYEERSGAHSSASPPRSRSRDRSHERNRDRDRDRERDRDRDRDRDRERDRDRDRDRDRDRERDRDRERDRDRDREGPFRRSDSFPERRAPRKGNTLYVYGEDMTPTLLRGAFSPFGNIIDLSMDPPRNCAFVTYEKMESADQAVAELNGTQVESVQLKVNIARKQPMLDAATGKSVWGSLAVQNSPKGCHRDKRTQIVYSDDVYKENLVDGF
# WDR77, Q9BQA1, UniProt Q9BQA1, whole entry: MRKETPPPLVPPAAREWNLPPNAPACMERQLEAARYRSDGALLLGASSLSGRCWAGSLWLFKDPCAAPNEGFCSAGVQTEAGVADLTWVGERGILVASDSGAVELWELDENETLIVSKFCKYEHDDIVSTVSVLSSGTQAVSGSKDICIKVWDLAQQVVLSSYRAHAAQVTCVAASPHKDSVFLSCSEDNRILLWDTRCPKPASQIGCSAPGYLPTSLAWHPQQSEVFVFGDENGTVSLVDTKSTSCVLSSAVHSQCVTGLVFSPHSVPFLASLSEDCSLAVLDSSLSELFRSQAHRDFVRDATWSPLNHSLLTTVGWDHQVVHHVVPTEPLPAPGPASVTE
# SRPK1, Q96SB4, UniProt Q96SB4, whole entry: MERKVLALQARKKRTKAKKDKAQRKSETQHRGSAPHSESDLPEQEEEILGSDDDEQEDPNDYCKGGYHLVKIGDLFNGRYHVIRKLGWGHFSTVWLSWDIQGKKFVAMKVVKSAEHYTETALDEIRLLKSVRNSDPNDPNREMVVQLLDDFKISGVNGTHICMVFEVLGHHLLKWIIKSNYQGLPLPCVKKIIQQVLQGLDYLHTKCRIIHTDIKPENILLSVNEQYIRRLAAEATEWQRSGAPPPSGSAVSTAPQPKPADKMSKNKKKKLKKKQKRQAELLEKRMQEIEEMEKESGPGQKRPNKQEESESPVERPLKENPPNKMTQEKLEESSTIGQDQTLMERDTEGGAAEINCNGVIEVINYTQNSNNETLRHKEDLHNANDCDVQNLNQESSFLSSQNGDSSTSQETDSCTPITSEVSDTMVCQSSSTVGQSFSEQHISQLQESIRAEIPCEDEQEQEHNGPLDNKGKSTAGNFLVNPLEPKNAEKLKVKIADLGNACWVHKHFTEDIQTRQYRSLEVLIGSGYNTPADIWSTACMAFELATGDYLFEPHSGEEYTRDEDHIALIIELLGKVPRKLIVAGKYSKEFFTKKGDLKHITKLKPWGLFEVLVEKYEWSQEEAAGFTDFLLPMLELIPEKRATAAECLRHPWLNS
# TUBB8, Q3ZCM7, UniProt Q3ZCM7, whole entry: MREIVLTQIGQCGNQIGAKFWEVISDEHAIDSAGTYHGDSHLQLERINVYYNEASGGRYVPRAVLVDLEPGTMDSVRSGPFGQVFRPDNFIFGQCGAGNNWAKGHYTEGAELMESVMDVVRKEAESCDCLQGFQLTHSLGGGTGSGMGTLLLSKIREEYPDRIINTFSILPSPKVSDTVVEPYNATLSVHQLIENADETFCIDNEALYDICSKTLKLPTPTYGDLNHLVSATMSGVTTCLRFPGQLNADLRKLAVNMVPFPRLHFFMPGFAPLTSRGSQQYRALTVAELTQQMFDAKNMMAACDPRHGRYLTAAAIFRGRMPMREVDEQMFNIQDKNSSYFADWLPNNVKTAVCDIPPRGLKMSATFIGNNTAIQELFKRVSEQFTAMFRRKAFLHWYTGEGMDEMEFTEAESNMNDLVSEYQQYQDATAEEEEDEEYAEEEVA
# MECP2, P51608, UniProt P51608, whole entry: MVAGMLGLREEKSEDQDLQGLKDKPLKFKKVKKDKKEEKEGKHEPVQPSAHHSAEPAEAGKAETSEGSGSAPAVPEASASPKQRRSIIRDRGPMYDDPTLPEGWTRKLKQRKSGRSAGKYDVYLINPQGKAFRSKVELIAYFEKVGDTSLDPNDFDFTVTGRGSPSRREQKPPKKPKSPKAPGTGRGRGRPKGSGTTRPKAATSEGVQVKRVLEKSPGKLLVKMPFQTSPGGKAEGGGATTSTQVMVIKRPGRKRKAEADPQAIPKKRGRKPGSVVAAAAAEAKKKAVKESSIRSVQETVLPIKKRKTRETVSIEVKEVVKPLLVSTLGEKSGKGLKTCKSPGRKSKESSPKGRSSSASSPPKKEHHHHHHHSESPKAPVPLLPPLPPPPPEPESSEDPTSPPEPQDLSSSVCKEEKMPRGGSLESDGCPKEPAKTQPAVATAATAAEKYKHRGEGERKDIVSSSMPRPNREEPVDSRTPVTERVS
# NDUFA11, Q86Y39, UniProt Q86Y39, whole entry: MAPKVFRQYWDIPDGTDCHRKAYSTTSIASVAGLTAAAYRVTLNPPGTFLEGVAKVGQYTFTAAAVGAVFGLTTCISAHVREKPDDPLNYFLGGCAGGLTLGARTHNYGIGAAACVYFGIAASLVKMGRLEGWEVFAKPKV
# NDUFA10, O95299, UniProt O95299, whole entry: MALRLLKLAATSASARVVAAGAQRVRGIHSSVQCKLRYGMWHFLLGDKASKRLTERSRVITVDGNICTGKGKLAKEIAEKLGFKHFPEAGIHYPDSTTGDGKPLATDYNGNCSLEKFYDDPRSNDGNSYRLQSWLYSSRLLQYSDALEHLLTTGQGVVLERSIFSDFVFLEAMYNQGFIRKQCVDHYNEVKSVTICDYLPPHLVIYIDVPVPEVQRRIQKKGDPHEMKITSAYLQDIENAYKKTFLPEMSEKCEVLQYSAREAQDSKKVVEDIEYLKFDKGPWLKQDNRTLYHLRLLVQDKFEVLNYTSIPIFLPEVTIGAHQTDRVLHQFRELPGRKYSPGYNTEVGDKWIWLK
# IDH1, O75874, UniProt O75874, whole entry: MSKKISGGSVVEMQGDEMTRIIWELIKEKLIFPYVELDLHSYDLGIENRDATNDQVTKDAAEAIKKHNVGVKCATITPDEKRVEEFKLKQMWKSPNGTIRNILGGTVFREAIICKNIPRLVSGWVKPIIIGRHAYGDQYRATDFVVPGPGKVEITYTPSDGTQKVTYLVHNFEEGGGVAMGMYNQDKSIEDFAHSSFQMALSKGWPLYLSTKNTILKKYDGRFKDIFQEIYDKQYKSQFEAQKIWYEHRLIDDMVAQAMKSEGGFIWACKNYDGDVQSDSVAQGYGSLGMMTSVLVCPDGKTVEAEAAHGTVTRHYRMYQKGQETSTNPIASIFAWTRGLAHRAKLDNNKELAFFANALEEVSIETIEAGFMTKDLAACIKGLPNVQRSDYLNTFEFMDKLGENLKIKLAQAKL
# Some of the results follow. Only hits are listed; about a third recur on repeated control peptides.
# Key:
# Assay in all cases: PRISMA enrichment of interactor (LFQ) in peptide spot vs all other peptide spots (log2 fold change); higher = stronger / more specific binding of the interactor to the peptide
# SERPINB10, P48595 = biological target: SERPINB10, P48595
# Method: (§1)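 PRISMA: 221 full-length sORF-encoded peptides (3-15 aa), plus SOS1/GLUT1 control peptides, were spot-synthesized on cellulose membranes in triplicate. Membranes were incubated with HEK293T lysate, and bound proteins were identified by LC-MS/MS with LFQ. Enrichment is the log2 fold change versus all other peptide spots; only significant interactors are listed (cutoff c=6, x0=2.8).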
# NUTF2, P61970 = biological target: NUTF2, P61970
# Method: as §1
# NCDN, Q9UBB6 = biological target: NCDN, Q9UBB6
# Method: as §1
# SSNA1, O43805 = biological target: SSNA1, O43805
# Method: as §1
# NCOR2, Q9Y618 = biological target: NCOR2, Q9Y618
# Method: as §1
# RPS6KA3, P51812 = biological target: RPS6KA3, P51812
# Method: as §1
# TPT1, P13693 = biological target: TPT1, P13693
# Method: as §1
# YTHDC1, Q96MU7 = biological target: YTHDC1, Q96MU7
# Method: as §1
# NUDT16L1, Q9BRJ7 = biological target: NUDT16L1, Q9BRJ7
# Method: as §1
# PDCD6, O75340 = biological target: PDCD6, O75340
# Method: as §1
# SRI, P30626 = biological target: SRI, P30626
# Method: as §1
# ITGA6, P23229 = biological target: ITGA6, P23229
# Method: as §1
# NELFE, P18615 = biological target: NELFE, P18615
# Method: as §1
# PSMF1, Q92530 = biological target: PSMF1, Q92530
# Method: as §1
# PSMG1, O95456 = biological target: PSMG1, O95456
# Method: as §1
# GPC1, P35052 = biological target: GPC1, P35052
# Method: as §1
# ISCU, Q9H1K1 = biological target: ISCU, Q9H1K1
# Method: as §1
# NAP1L1, P55209 = biological target: NAP1L1, P55209
# Method: as §1
# PAXBP1, Q9Y5B6 = biological target: PAXBP1, Q9Y5B6
# Method: as §1
# ROMO1, P60602 = biological target: ROMO1, P60602
# Method: as §1
# RPS19BP1, Q86WX3 = biological target: RPS19BP1, Q86WX3
# Method: as §1
# SRPRA, P08240 = biological target: SRPRA, P08240
# Method: as §1
# VPS52, Q8N1B4 = biological target: VPS52, Q8N1B4
# Method: as §1
# WDR61, Q9GZS3 = biological target: WDR61, Q9GZS3
# Method: as §1
# WDR77, Q9BQA1 = biological target: WDR77, Q9BQA1
# Method: as §1
# ZNF622, Q969S3 = biological target: ZNF622, Q969S3
# Method: as §1
# SRPK1, Q96SB4 = biological target: SRPK1, Q96SB4
# Method: as §1
# TUBB8, Q3ZCM7 = biological target: TUBB8, Q3ZCM7
# Method: as §1
# KDM1A, O60341 = biological target: KDM1A, O60341
# Method: as §1
# MECP2, P51608 = biological target: MECP2, P51608
# Method: as §1
# MT-ATP8, P03928 = biological target: MT-ATP8, P03928
# Method: as §1
# NDUFA11, Q86Y39 = biological target: NDUFA11, Q86Y39
# Method: as §1
# LIN7C, Q9NUP9 = biological target: LIN7C, Q9NUP9
# Method: as §1
# TSNAX, Q99598 = biological target: TSNAX, Q99598
# Method: as §1
# NDUFA10, O95299 = biological target: NDUFA10, O95299
# Method: as §1
# LYZ, P61626 = biological target: LYZ, P61626
# Method: as §1
# RCN2, Q14257 = biological target: RCN2, Q14257
# Method: as §1
# HNRNPUL2-BSCL2 = biological target: HNRNPUL2-BSCL2
# Method: as §1
# OXA1L, Q15070 = biological target: OXA1L, Q15070
# Method: as §1
# ZCCHC3, Q9NUD5 = biological target: ZCCHC3, Q9NUD5
# Method: as §1
# ZRANB2, O95218 = biological target: ZRANB2, O95218
# Method: as §1
# IDH1, O75874 = biological target: IDH1, O75874
# Method: as §1
# MRPL57, Q9BQC6 = biological target: MRPL57, Q9BQC6
# Method: as §1
# SPATS2, Q86XZ4 = biological target: SPATS2, Q86XZ4
# Method: as §1
# STX5, Q13190 = biological target: STX5, Q13190
# Method: as §1
# MPHOSPH10, O00566 = biological target: MPHOSPH10, O00566
# Method: as §1
# NAA50, Q9GZZ1 = biological target: NAA50, Q9GZZ1
# Method: as §1
# RBM15, Q96T37 = biological target: RBM15, Q96T37
# Method: as §1
# SDC4, P31431 = biological target: SDC4, P31431
# Method: as §1
# SNU13, P55769 = biological target: SNU13, P55769
# Method: as §1
# USP9X, Q93008 = biological target: USP9X, Q93008
# Method: as §1
# LSR, Q86X29 = biological target: LSR, Q86X29
# Method: as §1
# RBM7, Q9Y580 = biological target: RBM7, Q9Y580
# Method: as §1
# RUVBL2, Q9Y230 = biological target: RUVBL2, Q9Y230
# Method: as §1
# SLC27A4, Q6P1M0 = biological target: SLC27A4, Q6P1M0
# Method: as §1
binder,measurement,setting,value
MLKMMTFFQGL [TNFAIP2],PRISMA enrichment of interactor (log2),"SERPINB10, P48595",4.37
MAFLNG [NR2F2],PRISMA enrichment of interactor (log2),"NUTF2, P61970",5.26
MHRRMLAAQ [ADCY7],PRISMA enrichment of interactor (log2),"NCDN, Q9UBB6",5.17
same,PRISMA enrichment of interactor (log2),"SSNA1, O43805",4.24
MIFFKDGLEMEKC [NHSL2],PRISMA enrichment of interactor (log2),"NCOR2, Q9Y618",5.41
same,PRISMA enrichment of interactor (log2),"RPS6KA3, P51812",4.42
same,PRISMA enrichment of interactor (log2),"TPT1, P13693",7.27
same,PRISMA enrichment of interactor (log2),"YTHDC1, Q96MU7",7.15
MTALSW [NR1D1],PRISMA enrichment of interactor (log2),"NUDT16L1, Q9BRJ7",5.27
same,PRISMA enrichment of interactor (log2),"NUTF2, P61970",6.7
same,PRISMA enrichment of interactor (log2),"PDCD6, O75340",6.07
same,PRISMA enrichment of interactor (log2),"SRI, P30626",4.7
MLRAEALPVT [KLF9],PRISMA enrichment of interactor (log2),"ITGA6, P23229",7.82
same,PRISMA enrichment of interactor (log2),"NELFE, P18615",8.47
same,PRISMA enrichment of interactor (log2),"PSMF1, Q92530",4.01
same,PRISMA enrichment of interactor (log2),"PSMG1, O95456",5.2
MAAAALKAAAFGR [KDM5C],PRISMA enrichment of interactor (log2),"GPC1, P35052",7.09
same,PRISMA enrichment of interactor (log2),"ISCU, Q9H1K1",7.79
same,PRISMA enrichment of interactor (log2),"NAP1L1, P55209",6.64
same,PRISMA enrichment of interactor (log2),"PAXBP1, Q9Y5B6",6.12
same,PRISMA enrichment of interactor (log2),"ROMO1, P60602",5.68
same,PRISMA enrichment of interactor (log2),"RPS19BP1, Q86WX3",6.59
same,PRISMA enrichment of interactor (log2),"SRPRA, P08240",6.54
same,PRISMA enrichment of interactor (log2),"VPS52, Q8N1B4",9.08
same,PRISMA enrichment of interactor (log2),"WDR61, Q9GZS3",4.69
same,PRISMA enrichment of interactor (log2),"WDR77, Q9BQA1",8.03
same,PRISMA enrichment of interactor (log2),"ZNF622, Q969S3",7.81
MRRGIIV [TMEM173],PRISMA enrichment of interactor (log2),"SRPK1, Q96SB4",7.48
same,PRISMA enrichment of interactor (log2),"TUBB8, Q3ZCM7",6.02
MARLL [MAST4],PRISMA enrichment of interactor (log2),"KDM1A, O60341",5.2
same,PRISMA enrichment of interactor (log2),"MECP2, P51608",4.67
same,PRISMA enrichment of interactor (log2),"MT-ATP8, P03928",4.67
same,PRISMA enrichment of interactor (log2),"NDUFA11, Q86Y39",4.45
MLEPPAGASGQQ [PGF],PRISMA enrichment of interactor (log2),"LIN7C, Q9NUP9",4.75
same,PRISMA enrichment of interactor (log2),"TSNAX, Q99598",4.72
MRQFGICGRVAVAG [MFN1],PRISMA enrichment of interactor (log2),"NDUFA10, O95299",7.54
MVQAELRAIPR [TMEM184C],PRISMA enrichment of interactor (log2),"LYZ, P61626",4.46
same,PRISMA enrichment of interactor (log2),"RCN2, Q14257",6.42
MRAVRVV [RDH10],PRISMA enrichment of interactor (log2),"RCN2, Q14257",7.4
same,PRISMA enrichment of interactor (log2),"TUBB8, Q3ZCM7",6.91
MTFSCARRECYFR [LINC00909],PRISMA enrichment of interactor (log2),HNRNPUL2-BSCL2,6.01
same,PRISMA enrichment of interactor (log2),"OXA1L, Q15070",10.1
same,PRISMA enrichment of interactor (log2),"ZCCHC3, Q9NUD5",4.2
same,PRISMA enrichment of interactor (log2),"ZRANB2, O95218",5.21
MDVSTMERTVL [HIVEP2],PRISMA enrichment of interactor (log2),"IDH1, O75874",5.49
same,PRISMA enrichment of interactor (log2),"MRPL57, Q9BQC6",5.33
same,PRISMA enrichment of interactor (log2),"SPATS2, Q86XZ4",4.03
same,PRISMA enrichment of interactor (log2),"STX5, Q13190",5.68
MEVRKGNQLTQEPE [MGAT5],PRISMA enrichment of interactor (log2),"MPHOSPH10, O00566",5.44
same,PRISMA enrichment of interactor (log2),"NAA50, Q9GZZ1",4.78
same,PRISMA enrichment of interactor (log2),"RBM15, Q96T37",5.33
same,PRISMA enrichment of interactor (log2),"SDC4, P31431",4.41
same,PRISMA enrichment of interactor (log2),"SNU13, P55769",5.62
same,PRISMA enrichment of interactor (log2),"USP9X, Q93008",5.6
MRSNLIRETC [AASDH],PRISMA enrichment of interactor (log2),"LSR, Q86X29",4.94
same,PRISMA enrichment of interactor (log2),"RBM7, Q9Y580",7.69
same,PRISMA enrichment of interactor (log2),"RUVBL2, Q9Y230",5.32
same,PRISMA enrichment of interactor (log2),"SLC27A4, Q6P1M0",4.73

# An excerpt of these results, bar-delimited.
binder | measurement | setting | value
MLRAEALPVT [KLF9] | PRISMA enrichment of interactor (log2) | PSMF1, Q92530 | 4.01
MAAAALKAAAFGR [KDM5C] | PRISMA enrichment of interactor (log2) | PAXBP1, Q9Y5B6 | 6.12
MRRGIIV [TMEM173] | PRISMA enrichment of interactor (log2) | SRPK1, Q96SB4 | 7.48
